Test results: the supplement of paper PMC7858590
± gives the standard deviation of the averaged measurements. The full ranking holds about 3,800 compounds; the median of “cell shape (eccentricity) Z-score vs DMSO control” is about 1.1, and the lowest 2% start at about -4.7. This is one part of the list.

test system: human monocyte-derived macrophages (M0); experiment: cell shape (eccentricity) Z-score vs DMSO control; higher = more elongated, M2-like morphology; conditions: 20 µM; 24 h; macrophage state: M0 (M-CSF)

First: O=c1c(-c2cc(O)c(O)c(O)c2)coc2cc(O)c(O)c(O)c12
Second: COc1c(O)cc2occ(-c3ccccc3O)c(=O)c2c1O
The “cell shape (Z-score)” value of the first is higher: 0.318 for the first, -2.75 for the second.

Going from O=C(O)c1ccccc1Nc1cccc(OCc2ccc3ccccc3n2)c1 to CCCC(=O)Oc1ccc2[nH]c(C(=O)c3cc4ccccc4[nH]3)cc2c1, the “cell shape (Z-score)” value falls from 2.63 to 1.03.

Going from COC(=O)C1C(O)CCC2CN3CCc4c([nH]c5ccccc45)C3CC21 (centres undefined) to COc1ccc(OC)c2c(=S)c3ccccc3[nH]c12, the “cell shape (Z-score)” value falls from 3.44 to -0.54.

Going from CCCCCc1cc(OC)c2c(c1C(=O)O)OC(C)(C)C(O)C2 (centres undefined) to CCCCCCCC(O)C(O)C1CC(OC)=CC(=O)O1 (centres undefined), the “cell shape (Z-score)” value falls from 1.28 to 0.184.

Going from CC(CN(C)C)CN1c2ccccc2Sc2ccccc21 (centres undefined) to COc1ccccc1N1CCN(CCN2C(=O)c3ccccc3C(C)(C)C2=O)CC1, the “cell shape (Z-score)” value rises from -1.29 to 2.56.

First: N#CC(=C(N)Sc1ccc(N)cc1)c1ccccc1C(F)(F)F
Second: Cc1cccc(C=Cc2ccccc2)n1
The “cell shape (Z-score)” value of the first is higher: 4.79 for the first, 0.54 for the second.

Compared with CC(C)=CCc1c(O)c(CC=C(C)C)c2c(c1O)C(=O)CC(c1ccc(O)cc1O)O2 (centres undefined), O=C1C[C@@H](c2ccccc2)Oc2cc(O)cc(O)c21 is lower in “cell shape (Z-score)” value: 2.32 for the first, -0.699 for the second.

First: COCC1OC(OC(C)(C)C2CCC3(C)C=C(C4CCC5C4(C)CC(O)C4OC(C(C)(C)OC6OC(CO)C(O)C(O)C6NC(C)=O)CCC45C)CCC3O2)C(NC(C)=O)C(O)C1O (centres undefined)
Second: COC1CC(OC2CCC3(C)C(CCC4(O)C3CC(OC(=O)c3ccccc3)C3(C)C(O)(C(C)=O)CCC43O)C2)OC(C)C1OC1CC(OC)C(OC2OC(C)C(OC3OC(CO)C(O)C(O)C3O)C(OC)C2O)C(C)O1 (centres undefined)
The “cell shape (Z-score)” value of the first is higher: 0.281 ± 0.022 for the first, -0.183 for the second.

Going from COC(=O)C1=CO[C@@H](O[C@@H]2O[C@H](CO)[C@@H](O)[C@H](O)[C@H]2O)C2C1CCC2(C)O (some centres undefined) to C=C1C(O)CC2C(C(=O)OC)=CO[C@@H](O[C@@H]3O[C@H](CO)[C@@H](O)[C@H](O)[C@H]3O)C12 (some centres undefined), the “cell shape (Z-score)” value falls from 2.11 ± 2 to 0.0775.

Compared with OCC1OC(Oc2cc(O)cc(/C=C/c3ccccc3)c2)C(O)C(O)C1O (centres undefined), O=c1cc(-c2ccc(O)cc2)oc2cc(O)c(C3OC(CO)C(O)C(O)C3O)c(O)c12 (centres undefined) is lower in “cell shape (Z-score)” value: 1.2 for the first, -3.39 for the second.

Compared with COc1cc(C(=O)OC2OC(CO)C(O)C(O)C2O)cc(OC)c1OC (centres undefined), COc1ccc(C2Oc3c(OC)cc(CCCO)cc3C2CO)cc1OC1OC(CO)C(O)C(O)C1O (centres undefined) is lower in “cell shape (Z-score)” value: 0.582 for the first, -0.384 for the second.

First: CCn1cc(C(=O)O)c(=O)c2cc(F)c(N3CCNC(C)C3)c(F)c21 (centres undefined)
Second: C/C=C(/C)C(=O)O[C@@H]1c2cc(OC)c(OC)cc2-c2c(ccc(OC)c2OC)C[C@H]2C(=O)OC[C@H]12
The “cell shape (Z-score)” value of the first is higher: 3.49 for the first, -2.36 ± 3.5 for the second.

Compared with COc1ccccc1N1CCN(CCCCN2C(=O)c3ccccc3C2=O)CC1, OCCOCCN1CCN(Cc2cccc(Oc3ccccc3)c2)CC1 is higher in “cell shape (Z-score)” value: -2.05 for the first, -0.227 for the second.

Going from O=c1c(-c2ccc(O[C@@H]3O[C@H](CO)[C@@H](O)[C@H](O)[C@H]3O)cc2)coc2c([C@@H]3O[C@H](CO)[C@@H](O)[C@H](O)[C@H]3O)c(O)cc(O)c12 to O=C(CC(O)(CC(=O)OCc1ccc(O[C@@H]2O[C@H](CO)[C@@H](O)[C@H](O)[C@H]2O)cc1)C(=O)OCc1ccc(O[C@@H]2O[C@H](CO)[C@@H](O)[C@H](O)[C@H]2O)cc1)OCc1ccc(O[C@@H]2O[C@H](CO)[C@@H](O)[C@H](O)[C@H]2O)cc1, the “cell shape (Z-score)” value rises from 1.61 ± 1.3 to 3.21.

Going from Clc1cccc(C=NC=Nc2cccc(Cl)c2)c1 to NC(=O)c1ccc2[nH]ccc2c1, the “cell shape (Z-score)” value rises from -0.334 to 1.86.

Compared with C=C1CC[C@H]2[C@@](C)(CCC[C@@]2(C)C(=O)O)[C@@H]1CCC(C)CCO (some centres undefined), C/C(=C\CCC1(C)C2CC3C(C2)C31C)C(=O)O (centres undefined) is lower in “cell shape (Z-score)” value: 1.27 for the first, -2.64 for the second.

Compared with COc1ccccc1OCC(O)CO (centres undefined), COc1ccc2ccc(=O)oc2c1C(OC(C)=O)C(=O)C(C)C (centres undefined) is higher in “cell shape (Z-score)” value: 1.41 for the first, 2.3 for the second.

Going from C[C@@]12C[C@]3(O)O[C@H](O1)[C@]1(COC(=O)c4ccccc4)[C@H]3C[C@@]12O[C@@H]1O[C@H](CO)[C@@H](O)[C@H](O)[C@H]1O to CC1C(OC(=O)C(O)c2ccccc2)CCC(C)(C)N1C (centres undefined), the “cell shape (Z-score)” value falls from 1.76 to 1.74.

Going from CN(C)c1ccc(C(=C2C=CC(=[N+](C)C)C=C2)c2ccc(N(C)C)cc2)cc1 to COc1ccc(-c2noc(CC(=O)O)c2-c2ccc(OC)cc2)cc1, the “cell shape (Z-score)” value rises from -4.21 to -1.42.

Compared with Oc1c(Cl)cc(Cl)c(Cl)c1Cc1c(O)c(Cl)cc(Cl)c1Cl, Cc1ccc(S(=O)(=O)OCC(=O)Nc2ccc(C(=O)O)c(O)c2)cc1 is higher in “cell shape (Z-score)” value: 2.11 for the first, 5.47 for the second.

Going from Nc1nc(Cl)nc2c1ncn2C1OC(CO)C(O)C1F (centres undefined) to CNC(=N)NC(=O)Nc1c(C)cccc1C, the “cell shape (Z-score)” value rises from 0.328 to 1.21.

Going from O=C(O)/C=C/CCCCCCCC(=O)O to CNC(CC(=O)O)C(=O)O (centres undefined), the “cell shape (Z-score)” value rises from 1.27 to 2.59.
